Measurements reported in article PMC7177788.
No constants are given. Whether binding was seen depends on the method and setting. Some binding calls cover weakened binding; strength is not graded here.

T1: gastrokine 2 (GKN2), endogenous in human gastric mucosa (human (endogenous in gastric mucosa)) (UniProt Q86XP6)
T1 sequence: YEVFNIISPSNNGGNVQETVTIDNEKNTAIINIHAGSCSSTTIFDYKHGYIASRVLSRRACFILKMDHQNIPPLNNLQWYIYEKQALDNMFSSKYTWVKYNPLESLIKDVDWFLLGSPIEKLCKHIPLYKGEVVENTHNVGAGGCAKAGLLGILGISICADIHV


What was measured:
[1] = biological target: T2, IgG Fc binding protein (FCGBP), endogenous in human gastric mucosa (human (endogenous in gastric mucosa)), Q9Y6R7; assay: anion-exchange chromatography (co-elution), then agarose gel electrophoresis with Western blot; human gastric corpus E1-extract (MC-577); Resource Q6 column, salt gradient; fractions B3-C4 on 1% AgGE, blots for FCGBP and TFF1; conditions: remark: other sources report otherwise
[2] = biological target: T2, IgG Fc binding protein (FCGBP), …; assay: SEC, then co-migration in agarose gel electrophoresis with Western blot; human gastric corpus extract (MC-383) on Superdex 75 HL; high-molecular-mass fractions B7-B10 on 1% AgGE (0.1% SDS), blots for TFF1 and FCGBP; conditions: remark: other sources report otherwise
[3] = biological target: TFF1 (Trefoil Factor Family peptide 1), endogenous in human gastric mucosa (human (endogenous in gastric mucosa)) (UniProt P04155); assay: SEC, then non-reducing versus reducing SDS-PAGE with Western blot; human gastric corpus extract (MC-577) after TRIzol extraction, pellet dissolved in 1% SDS; Superdex 75 HL; fractions analysed under reducing or non-reducing conditions for TFF1 and GKN2; bands eluted and reduced
[4] = biological target: T1, gastrokine 2 (GKN2), endogenous in human gastric mucosa (human (endogenous in gastric mucosa)); assay: as above
[5] = biological target: TFF1 (Trefoil Factor Family peptide 1), endogenous in human gastric mucosa (human (endogenous in gastric mucosa)) (UniProt P04155); assay: SEC, then non-reducing SDS-PAGE with Western blot and release by reduction; human gastric corpus extract (MC-383, aqueous buffer 30 mM NaCl, 20 mM Tris-HCl pH 7.0) on Superdex 75 HL; fractions on non-reducing 15% SDS-PAGE, anti-TFF1 blot; bands eluted and run under reducing conditions
[6] = biological target: T1, gastrokine 2 (GKN2), endogenous in human gastric mucosa (human (endogenous in gastric mucosa)); assay: as above
[7] = biological target: T1, gastrokine 2 (GKN2), endogenous in human gastric mucosa (human (endogenous in gastric mucosa)); assay: anion-exchange chromatography, then non-reducing SDS-PAGE with Western blot and LC-ESI-MS/MS of bands; human gastric corpus extract (MC-577) after TRIzol extraction; Resource Q6 column, salt gradient, 20 mM Tris-HCl pH 7.0; non-reducing 15% SDS-PAGE, anti-TFF1 blot; bands excised and digested with trypsin

binding [1] | binding [2] | binding [3] | binding [4] | binding [5] | binding [6] | binding [7] | Binder
binds | binds | – | – | – | – | – | TFF1 (Trefoil Factor Family peptide 1), endogenous in human gastric mucosa, P04155 25-84 (protein) EAQTETCTVAPRERQNCGFPGVTPSQCANKGCCFDDTVRGVPWCFYPNTIDVPPEEECEF
– | – | binds | binds | binds | binds | binds | TFF1 (Trefoil Factor Family peptide 1), endogenous in human gastric mucosa (protein, UniProt P04155 25-84) EAQTETCTVAPRERQNCGFPGVTPSQCANKGCCFDDTVRGVPWCFYPNTIDVPPEEECEF
